Paper PMC4196738
No constants are given. Whether binding was seen depends on the method and setting. In cells and extracts the contact can be indirect. Some results given as binding are weak or reduced against the parent protein; the word gives no strength. Tags and fused reporters may be left off the sequences shown.

How the values were obtained:
[1] = target: T1, Emc1 tagged with a Venus fragment (PCA strain) (S. cerevisiae) (UniProt P25574); assay: split reporter; Venus–YFP protein-fragment complementation assay (PCA); proteins tagged with VF1 or VF2, strains crossed, haploid meiotic progeny with both alleles; log phase live yeast imaged by confocal microscopy
T1 sequence: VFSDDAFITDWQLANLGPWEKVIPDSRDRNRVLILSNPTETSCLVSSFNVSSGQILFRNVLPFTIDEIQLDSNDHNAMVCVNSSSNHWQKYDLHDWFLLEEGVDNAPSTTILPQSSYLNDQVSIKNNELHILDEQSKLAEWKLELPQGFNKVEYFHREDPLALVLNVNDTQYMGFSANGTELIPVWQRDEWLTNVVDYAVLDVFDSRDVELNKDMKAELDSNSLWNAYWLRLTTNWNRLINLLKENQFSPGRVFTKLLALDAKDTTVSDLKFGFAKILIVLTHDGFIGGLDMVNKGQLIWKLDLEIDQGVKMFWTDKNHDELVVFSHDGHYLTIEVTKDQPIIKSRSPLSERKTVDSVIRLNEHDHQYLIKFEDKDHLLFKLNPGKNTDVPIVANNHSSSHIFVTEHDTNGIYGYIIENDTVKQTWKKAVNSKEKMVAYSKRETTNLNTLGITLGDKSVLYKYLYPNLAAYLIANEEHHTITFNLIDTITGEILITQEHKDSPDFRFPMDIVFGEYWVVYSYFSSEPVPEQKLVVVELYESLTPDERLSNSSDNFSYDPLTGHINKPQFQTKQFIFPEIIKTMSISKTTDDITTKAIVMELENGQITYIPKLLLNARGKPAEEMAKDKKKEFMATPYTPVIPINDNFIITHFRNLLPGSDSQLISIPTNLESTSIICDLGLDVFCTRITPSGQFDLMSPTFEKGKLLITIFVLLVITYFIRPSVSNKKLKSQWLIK

[2] = target: T2, Emc5 fused to GFP (S. cerevisiae) (UniProt P40540); assay: co-IP; lysates (250 mM NaCl, 50 mM Tris-HCl pH 7.4, 0.1% NP-40) of yeast expressing GFP-tagged Emc protein and galactose-induced TAP–Tom5; GFP–Trap_A beads, 1 h at 4°C; blotted with anti-TAP and anti-GFP; TAP–Tom5 repressed in dextrose as control
T2 sequence: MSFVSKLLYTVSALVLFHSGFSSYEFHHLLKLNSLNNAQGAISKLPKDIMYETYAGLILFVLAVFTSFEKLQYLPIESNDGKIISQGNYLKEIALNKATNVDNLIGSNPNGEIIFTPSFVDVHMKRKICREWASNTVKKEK

[3] = target: T3, Emc1 fused to GFP (S. cerevisiae) (UniProt P25574); assay: as above
T3 sequence: T1 sequence

[4] = target: T4, Emc2 fused to GFP (S. cerevisiae) (UniProt P47133); assay: as above
T4 sequence: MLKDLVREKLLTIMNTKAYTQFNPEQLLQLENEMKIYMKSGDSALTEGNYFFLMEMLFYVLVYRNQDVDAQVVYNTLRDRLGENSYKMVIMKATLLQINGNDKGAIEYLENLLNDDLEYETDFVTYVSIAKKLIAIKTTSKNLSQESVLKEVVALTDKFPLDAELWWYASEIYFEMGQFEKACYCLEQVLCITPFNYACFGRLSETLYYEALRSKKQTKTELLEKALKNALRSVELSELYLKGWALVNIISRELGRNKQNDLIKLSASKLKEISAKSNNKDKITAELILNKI

B1: Tom5 tagged with VF1 (PCA strain) (peptide, UniProt P80967 1-50)
chain: MFGLPQQEVSEEEKRAHQEQTEKTLKQAAYVAAFLWVSPMIWHLVKKQWK
binding [1]: binds

B2: TAP–Tom5 (peptide, UniProt P80967 1-50)
chain: B1 chain
binding [2]: binds | binding [3]: binds | binding [4]: binds
